# Results reported in PubChem BioAssay AID602125 (The Scripps Research Institute Molecular Screening Center, 2011).
# Among all 1,300 compounds or so, about 110 (8.5%) were called active. No stated cut-off is given here; in the data, active means inhibition above about 6.5%; inactive means the rest. The list shows a part of the results, in another mix than the full data.
# Test: quenching of GFP signal – biochemical, fluorescence, artefact control for Rin1-Abl interaction inhibitor project (AID 602125);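 further: ABL1-eGFP fusion protein alone without its partner RIN1-SBP; 0% = protein with vehicle and 100% = wells lacking protein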
# Conditions: inhibitors/quenchers counterscreen, at 6.75 µM, active compounds read high
row,Structure (SMILES),inhibition
1,CSCCC(c1nnnn1C(C)(C)C)N1CCC(n2c(=O)[nH]c3ccccc32)CC1 (stereo unspecified),inactive: -1.5%
